Experimental data published in patent US20060111305A1, “Metabolites of certain [1,4]diazepino[6,7,1-ij]quinoline derivatives and methods of preparation and use thereof” (Wyeth, priority 2004, published 2006).
Some results were stated once for a whole list of compounds, not compound by compound.

Assay: Rat brain radioactivity content and metabolite profiles after single oral 5 mg/kg [14C]DCDQ
Format: in vivo, Sprague-Dawley rats
Conditions: male and female rat brain
Method: At sacrifice, blood samples were collected by cardiac puncture into tubes containing EDTA as the anticoagulant and placing them on ice. Aliquots of 50 μL were removed for combustion and determination of radioactivity content. Plasma was immediately obtained from the remaining blood by centrifugation at 4° C. Brains were excised after perfusion with 50 mL of chilled sterile saline. Urine samples were collected on dry ice at intervals of 0-8 and 8-24 hour post-dosing. Feces were collected at intervals of 0-8 and 8-24 hr post-dosing at room temperature and were homogenized as described previously. The biological specimens and aliquots of the dosing solution at pre- and post-dose were stored at approximately −70° C. until analyzed.
Brain and fecal samples were weighed and homogenized in water at volume-to-weight ratios of about 1:1 and 5:1, respectively. Blood aliquots (50 μL), brain homogenates (0.1 gram) and fecal homogenates (0.2 gram) were placed on Combusto-cones with Combusto-pads and combusted. A model 307 Tri-Carb Sample Oxidizer, equipped with an Oximate-80 Robotic Automatic Sampler (Perkin Elmer), was used for combustion. The liberated ^14CO2 was trapped with Carbo-Sorb E carbon dioxide absorber, mixed with PermaFluor® E+ liquid scintillation cocktail, and counted in a Tri-Carb Model 3100 TR/LL liquid scintillation counter (Perkin Elmer). The oxidation efficiency of the oxidizer was 98.2%.
Brain homogenates were analyzed for metabolite profiles. […] Extraction efficiency was determined by analyzing aliquots of 10 μL of the supernatant for radioactivity. An aliquot (100-200 μL) of the supernatant was analyzed by HPLC with radioactivity flow detection for profiling. Samples were also analyzed by LC/MS to characterize the radioactive peaks.
A Waters model 2690 HPLC system (Waters Corp., Milford, Mass.) with a built-in autosampler was used for analysis. […] A variable wavelength UV detector set to monitor 250 nm and a Flo-One β Model A525 radioactivity detector described above were used for data acquisition. […]

Average % of brain radioactivity, each metabolite, less than 4.5%:
CC(=O)N1Cc2cccc3c2N(C[C@@H]2CCC[C@H]32)C(O)C1 (stereo partly drawn) [Metabolite M11, acetylated hydroxy DCDQ]
OC1CNCc2cccc3c2N1C[C@@H]1CCC[C@H]31 (stereo partly drawn) [Metabolite M10, hydroxy DCDQ]
O=C1CC[C@@H]2c3cccc4c3N(CCNC4)C[C@H]12 [Metabolite M7, 17-keto DCDQ]
